Experimental data reported in PubChem BioAssay AID624291 (National Center for Advancing Translational Sciences (NCATS), 2012).
Out of some 350,000 compounds screened, about 220 (0.063%) were called active. This list was built around the results that the source calls inconclusive (neither active nor inactive); the mix of calls is not that of the screen. The call rests on the fitted dose curve; in most records, active means well fitted activation curve with a large enough effect; inconclusive means small, poorly fitted or top-dose-only effect; inactive means no such curve, though single readings can be large or run the other way. Potencies of inconclusive entries are doubtful fits and often do not repeat.

Test: qHTS for Activators of Integrin-Mediated Alleviation for Muscular Dystrophy; further: nearly all actives have a fitted effect of over 60% in size;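 on activation: 100% = response of the positive control SU9516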
Details: alpha7betagal myoblasts, beta-gal FDG fluorescence, 48 h; activation: at 38.3 µM (top of the series)
Outline: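 Alpha7betagal+/- myoblasts (passage 13) were plated 16-24 hr, then exposed to compounds (1:260 dilution of DMSO stock) for 48 hours at 37C. After MPER lysis, β-galactosidase reporter activity was read as FDG fluorescence (ex 480/em 540) after 30 minutes.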
Potency means the concentration at half of the fitted maximal effect.

**Q.** For C=CCNc1ccc(N2C(=O)CCCC2=O)cc1[N+](=O)[O-], which Potency is on record?
**A.** Its Potency is inconclusive: 10 µM [activator, partial curve, poor fit].

**Q.** With Cc1cc(=O)oc2cc(OCC(=O)NC3CCCCC3)ccc12 as the compound, how does the Potency read?
**A.** Its Potency is inconclusive: 28.2 µM [activator, single point].

**Q.** Which Potency does the source give for COc1ccc(CNC(=O)CCSCc2cccc(F)c2)cc1 here?
**A.** The Potency was inconclusive: 3.55 µM [activator, single point].

**Q.** With CCCc1cc(C(=O)N2CCC(n3nccc3NC(=O)c3ccc(OC)cc3)CC2)no1 as the compound, how does the Potency read?
**A.** Its Potency is inconclusive: 5.01 µM [activator, single point].

**Q.** With Cc1cccc(N(Cc2cc3cc(C)ccc3[nH]c2=O)C(=O)c2cccs2)c1 as the compound, how does the Potency read?
**A.** The Potency was inconclusive: 8.91 µM [activator, single point].

**Q.** With C/C=C\C=C/C(=O)Nc1cccc(C2=NOC3(C2)C[C@@H](C(N)=O)N(C(=O)COc2ccc(Cl)cc2)C3)c1 (stereo partly drawn) as the compound, how does the “activation” value read?
**A.** Its value is inactive: -28.2%.

**Q.** With CCc1nnc(NS(=O)(=O)c2ccc(N/C=C/C(=O)c3ccc(C)cc3)cc2)s1 as the compound, how does the “activation” value read?
**A.** Its value is inactive: 5.48%.

**Q.** For N=c1c(C(=O)NCc2ccc3c(c2)OCO3)cc2c(=O)n3ccccc3nc2n1CC1CCCO1 (stereo not drawn), which Potency is on record?
**A.** The Potency was inconclusive: 2.82 µM [activator, single point].

**Q.** For CCOC(=O)CNC(=O)CSc1nc(Cc2cccs2)nc2ccccc12, which “activation” value is on record?
**A.** The value was inactive: 11.4%.

**Q.** With C[C@H](NS(=O)(=O)c1ccc(Cl)cc1)C(=O)OCC(=O)c1ccc[nH]1 as the compound, how does the Potency read?
**A.** The Potency was inconclusive: 7.94 µM [activator, partial curve].

**Q.** For COC(=O)c1sc(=S)sc1C(=O)OC, which “activation” value is on record?
**A.** Its value is inactive: -45.1%.

**Q.** For CN(C1CCCCC1)C(CNS(=O)(=O)c1ccc(Cl)cc1)c1ccccc1 (stereo not drawn), which Potency is on record?
**A.** The Potency was inconclusive: 1.41 µM [activator, full curve, poor fit].

**Q.** Which Potency does the source give for COc1ccc(CC(=O)OCC(=O)N2CCc3ccccc32)cc1OC here?
**A.** Its Potency is inconclusive: 28.2 µM [activator, single point].

**Q.** Which Potency does the source give for COc1cc2ccccc2ccc1=NO here?
**A.** The Potency was inconclusive: 11.2 µM [activator, partial curve, poor fit].

**Q.** Which Potency does the source give for O=C(NCC1CCCCC1)c1cc(S(=O)(=O)N2CCOCC2)ccc1F here?
**A.** The Potency was inconclusive: 5.01 µM [activator, single point].

**Q.** Which Potency does the source give for CCCCn1c(N)c(N(CCC(C)C)C(=O)C2CCCC2)c(=O)[nH]c1=O here?
**A.** The Potency was inconclusive: 1 µM [activator, partial curve, poor fit].

**Q.** Which Potency does the source give for O=C1CSC(=S)N1N=Cc1ccccc1O here?
**A.** Its Potency is inconclusive: 1.58 µM [activator, partial curve, poor fit].

**Q.** With COP(=O)(OC)c1nc(-c2ccc([N+](=O)[O-])cc2)oc1N1CCCCC1 as the compound, how does the “activation” value read?
**A.** Its value is inactive: 5.91%.
